Source: patent US20230348376A1 (TEIJIN PHARMA LIMITED, priority 2020, published 2023)

System: rat oligodendrocyte progenitor cells
Assay: Promotive activity of rat oligodendrocyte progenitor cell differentiation-2 (immunostaining of MBP)
Format: cell-based
Conditions: Test 4; vitamin D derivative 2 μM, T3 30 nM
Procedure, shortened: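 Vitamin D derivatives scored as symbols for promoting differentiation, read out by MBP immunostaining. OPCs taken from supernatant after about 22 h shaking (37 °C, 200 rpm) in separation medium.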

C=C1/C(=C\C=C2/CCC[C@]3(C)[C@@H]([C@H](C)CN4CCOC[C@H]4C)CC[C@@H]23)C[C@@H](O)C[C@H]1O [Compound I005, (1R,3R,Z)-5-(2-((1R,3aS,7aR,E)-7a-methyl-1-((S)-1-((R)-3-methylmorpholino)propan-2-yl)octahydro-4H-inden-4-ylidene)ethylidene)-4-methylenecyclohexane-1,3-diol]
Significant difference (t-test vs DMSO group): **** (<0.0001)

C=C1/C(=C\C=C2/CCC[C@]3(C)[C@@H]([C@H](C)CN4CCOCC4(C)C)CC[C@@H]23)C[C@@H](O)C[C@H]1O [Compound I006, (1R,3R,Z)-5-(2-((1R,3aS,7aR,E)-1-((S)-1-(3,3-dimethylmorpholino)propan-2-yl)-7a-methyloctahydro-4H-inden-4-ylidene)ethylidene)-4-methylenecyclohexane-1,3-diol]
Significant difference (t-test vs DMSO group): **** (<0.0001)
